Test results as given in PubChem BioAssay AID226 (DTP/NCI, 2004).
The list does not hold the whole screen: it gathers tests that were run many times, whatever their T/C, doses with no T/C, and many T/C values between a quarter and a half above the control. Other doses and runs of a compound stand elsewhere. T/C gives the treated animals as a percentage of the vehicle group. Some doses have a count of surviving animals in place of a T/C: the source files T/C as zero there, which appears to mark a toxic dose or a test without result, not a measured value. Some survivor counts are full or nearly so, which does not show that the dose was tolerated: survival well below the control is almost never listed, so the zero probably covers shortened survival too. Survivors were counted at the toxicity check, usually on the fifth day, unless a day is given; later deaths do not show. Schedules are NCI's codes, taken here to give the interval after Q, in days (D) or hours (H), and the number of doses after X. Some entries were tested several times; the results are listed from low to high. For survival time, this PubChem deposit counts one and a half times the control or more as active, and values a quarter to a half above the control carry no call in these data; other NCI protocols may use other cut-offs. Some T/C values carry the count of animals alive at the toxicity check (mostly the fifth day); where none is given, no animal had died by that day.

System: B6C3F1 mice, intracerebral ependymoblastoma, median survival T/C
Assay: NCI In Vivo Anticancer Drug Screen. Data for tumor model Ependymoblastoma (intracerebral) in B6C3F1 mice
Details: T/C endpoint: median survival time, higher T/C = longer survival
Procedure: The antitumor activity of compounds was measured in mice bearing transplantable tumors. Survival or tumor size were measured and the results are expressed as the measurement made in the treated group (T) divided by the measurement made in the vehicle treated control group (C). The tumor model used in this assay is Ependymoblastoma (intracerebral) in B6C3F1 mice

[1] = dose: 64.0 mg/kg/injection, schedule: Q01DX005 (ip), vehicle: Klucel (hydroxypropylcellulose) (HPC)

## O=C1C(=O)c2ccccc2C(O)=C1CC=C(Cl)Cl
dose: 20.0 mg/kg/injection, schedule: Q01DX001 (ip), vehicle: Klucel (hydroxypropylcellulose) (HPC)
  T/C: 93 [survivors not given], 97 [survivors not given], 106 [survivors not given], 114 % of control
dose: 40.0 mg/kg/injection, schedule: Q01DX001 (ip), vehicle: Klucel (hydroxypropylcellulose) (HPC)
  T/C: 87 [survivors not given], 88, 98 [survivors not given], 101 % of control [survivors not given]
dose: 80.0 mg/kg/injection, schedule: Q01DX001 (ip), vehicle: Klucel (hydroxypropylcellulose) (HPC)
  T/C: 96 [survivors not given], 97 [survivors not given], 103, 109 % of control [survivors not given]
dose: 160.0 mg/kg/injection, schedule: Q01DX001 (ip), vehicle: Klucel (hydroxypropylcellulose) (HPC)
  T/C: 90 [survivors not given], 95 [survivors not given], 97 [8 of 10 alive on day 9], 105 % of control [survivors not given]

## COc1ccc2c(c1OC(C)=O)-c1cc(OC(C)=O)cc3c1C(C2)N(C(=O)CN(CCCl)CCCl)CC3 (configuration not stated)
dose: 25.0 mg/kg/injection, schedule: Q01DX005 (ip), vehicle: DMSO
  survivor count: 8 of 10
dose: 50.0 mg/kg/injection, schedule: Q01DX005 (ip), vehicle: DMSO
  survivor count: 1 of 10
dose: 100.0 mg/kg/injection, schedule: Q01DX005 (ip), vehicle: DMSO
  survivor count: 0 of 10
dose: 200.0 mg/kg/injection, schedule: Q01DX005 (ip), vehicle: DMSO
  survivor count: 0 of 10

## O=NN(CCF)C(=O)NCCO
dose: 40.0 mg/kg/injection, schedule: Q01DX005 (ip), vehicle: Klucel (hydroxypropylcellulose) (HPC)
  survivor count: 9 of 10 on day 6
dose: 100.0 mg/kg/injection, schedule: Q01DX001 (ip), vehicle: saline
  survivor count: 8 of 10 on day 6

## COc1cc(NC(=O)CN(CCCl)CCCl)cc(OC)c1OC
dose: 100.0 mg/kg/injection, schedule: Q01DX009 (ip), vehicle: saline with Tween-80
  survivor count: 10 of 10
dose: 200.0 mg/kg/injection, schedule: Q01DX009 (ip), vehicle: saline with Tween-80
  survivor count: 7 of 10

## CN1C(=O)CC(c2ccc(NC(=O)N(CCCl)N=O)cc2)C1=O (configuration not stated)
dose: 3.0 mg/kg/injection, schedule: Q01DX005 (ip), vehicle: distilled water + Tween-80
  T/C: 132 % of control

## COC(=O)c1ccc(N=NN(C)C)cc1
dose: 16.0 mg/kg/injection, schedule: Q01DX005 (ip), vehicle: saline + alcohol
  T/C: 125 % of control
dose: 32.0 mg/kg/injection, schedule: Q01DX005 (ip), vehicle: saline + alcohol
  T/C: 130 and 144 % of control

## COc1ccc2c(c1O)-c1cccc3c1[C@@H](C2)N(CCCl)CC3
dose: 2.0 mg/kg/injection, schedule: Q01DX005 (ip), vehicle: Klucel (hydroxypropylcellulose) (HPC)
  survivor count: 10 of 10
dose: 4.0 mg/kg/injection, schedule: Q01DX005 (ip), vehicle: saline
  survivor count: 10 of 10
dose: 8.0 mg/kg/injection, schedule: Q01DX005 (ip), vehicle: saline
  survivor count: 10 of 10
dose: 16.0 mg/kg/injection, schedule: Q01DX005 (ip), vehicle: Klucel (hydroxypropylcellulose) (HPC)
  survivor count: 2 of 10
dose: 16.0 mg/kg/injection, schedule: Q01DX005 (ip), vehicle: saline
  survivor count: 10 of 10
dose: 32.0 mg/kg/injection, schedule: Q01DX005 (ip), vehicle: Klucel (hydroxypropylcellulose) (HPC)
  survivor count: 0 of 10
dose: 32.0 mg/kg/injection, schedule: Q01DX005 (ip), vehicle: saline
  survivor count: 2 of 10
[1]
  survivor count: 0 of 10
dose: 64.0 mg/kg/injection, schedule: Q01DX005 (ip), vehicle: saline
  survivor count: 0 of 10
dose: 128.0 mg/kg/injection, schedule: Q01DX005 (ip), vehicle: saline
  survivor count: 0 of 10

## Cc1[nH]c(=O)[nH]c(=O)c1N(CCF)CCCl
dose: 32.0 mg/kg/injection, schedule: Q01DX005 (ip), vehicle: saline with Tween-80
  survivor count: 9 of 10
[1]
  survivor count: 1 of 10 and 10 of 10
dose: 64.0 mg/kg/injection, schedule: Q01DX005 (ip), vehicle: saline with Tween-80
  survivor count: 0 of 10 and 7 of 10

## CC(=O)CC(c1ccccc1)c1c(O)c2ccccc2oc1=O (configuration not stated)
dose: 1.6 mg/kg/injection, schedule: Q01DX005 (ip), vehicle: Klucel (hydroxypropylcellulose) (HPC)
  survivor count: 8 of 10

## COC1OC(CNC(=O)N(CCCl)N=O)C(O)C(O)C1O (configuration not stated)
dose: 16.0 mg/kg/injection, schedule: Q01DX001 (ip), vehicle: saline
  T/C: 125 % of control
dose: 32.0 mg/kg/injection, schedule: Q01DX001 (ip), vehicle: saline
  T/C: 137 and 138 % of control

## O=NN(CCCl)C(=O)NC1[C@H](O)CCC[C@@H]1O (some centres not stated)
dose: 7.2 mg/kg/injection, schedule: Q01DX001 (ip), vehicle: saline
  T/C: 135 % of control
dose: 12.0 mg/kg/injection, schedule: Q01DX005 (ip), vehicle: saline
  survivor count: 10 of 10
dose: 20.0 mg/kg/injection, schedule: Q01DX005 (ip), vehicle: Klucel (hydroxypropylcellulose) (HPC)
  survivor count: 4 of 10 on day 6
dose: 20.0 mg/kg/injection, schedule: Q01DX005 (ip), vehicle: saline
  survivor count: 10 of 10
dose: 33.3 mg/kg/injection, schedule: Q01DX001 (ip), vehicle: saline
  survivor count: 10 of 10 on day 6
dose: 33.3 mg/kg/injection, schedule: Q01DX005 (ip), vehicle: saline
  survivor count: 9 of 10

## CCCN(C)C(=O)N(CCCl)N=O
dose: 15.6 mg/kg/injection, schedule: Q01DX001 (ip), vehicle: saline + alcohol
  T/C: 145 % of control
dose: 250.0 mg/kg/injection, schedule: Q01DX001 (ip), vehicle: saline + alcohol
  survivor count: 7 of 10

## Nc1nc(SCc2ccccc2F)c2ncn(C3OC(CO)C(O)C3O)c2n1 (configuration not stated)
dose: 3.12 mg/kg/injection, schedule: Q01DX005 (ip), vehicle: saline with Tween-80
  T/C: 125 % of control

## CCC(=O)O[C@H]1CC[C@H]2[C@@H]3CC[C@H]4CC(=O)[C@H](C)C[C@]4(C)[C@H]3CC[C@]12C
dose: 512.0 mg/kg/injection, schedule: Q01DX005 (ip), vehicle: Klucel (hydroxypropylcellulose) (HPC)
  survivor count: 4 of 6

## ClC1=C(Cl)C2(Cl)C3C(Cl)C(Cl)CC3C1(Cl)C2(Cl)Cl (configuration not stated)
dose: 100.0 mg/kg/injection, schedule: Q01DX005 (ip), vehicle: other
  survivor count: 0 of 10
